A short description of this data set: Colour development of the marker with a base developing reagent, visual and spectrophotometric detection. The note with it: for marker concentration determined on a spectrophotometer: developed.
Setting [1] is: developed with base developer in kerosene / fuel (Examples 2-8).
[2] abbreviates: 4 ppm in diesel fuel, benzyltrimethylammonium hydroxide (2%) in 2-ethylhexanol.
Where [3] appears, read: marked diesel diluted 10 ml in 90 ml unmarked diesel, benzyltrimethylammonium hydroxide (2%) in 2-ethylhexanol.

Structures are written as SMILES.

For the compound `CCCC(=O)Oc1cc(C)c(C2(c3cc(C(C)C)c(OC(=O)CCC)cc3C)OC(=O)c3ccccc32)cc1C(C)C` [Example 8, thymolphalein dibutryate ester], the developed color result is “clear blue” under setting [1]; “blue” (home heating oil, dosage equivalent to 90 ppm, benzyltrimethylammonium hydroxide (2%) in 2-ethylhexanol); “blue” (ten milligrams per liter of xylene, benzyltrimethylammonium hydroxide (5%) in ethanol). For the same compound, the “wavelength of maximum absorption of developed color” value (“wavelength” for short) under setting [1] is on record as “around 598 nm”.
`CCCC(=O)Oc1ccc(C2(c3ccc(OC(=O)CCC)c(C)c3)OC(=O)c3ccccc32)cc1C` [Example 1, o-Cresolphthalein dibutyrate ester]: the “marker concentration determined on a spectrophotometer” value was 0.4 ppm (4 mg/l marked diesel diluted 10 ml in 90 ml unmarked diesel) and 4 ppm (diesel fuel dosed at 4 ppm, compared with standard). In addition, the developed color result runs as follows: under setting [2], “intense red”; under setting [3], “red”. The “maximum absorbance of developed marker” value under setting [2] was found to be 580 nm.
For the compound `CCCCCCCCCCCC(=O)Oc1ccc(C2(c3ccc(OC(=O)CCCCCCCCCCC)c4ccccc34)OC(=O)c3ccccc32)c2ccccc12` [Example 6], under setting [1], the developed color result is reported as “clear turquoise” and the “wavelength” value was “around 650 nm”.
With `CCCC(=O)Oc1ccc(C2(c3ccc(OC(=O)CCC)cc3C)OC(=O)c3ccccc32)c(C)c1` [Example 5], under setting [1], the developed color entry is recorded as “purple” and the “wavelength” value is given as “around 582 nm”. Under setting [3], the developed color result is reported as “reddish violet”.
On to `CCCC(=O)Oc1ccc(C2(c3ccc(OC(=O)CCC)c(C(C)CC)c3)OC(=O)c3ccccc32)cc1C(C)CC` (centres unmarked) [Example 4], for which, under setting [1], the developed color result is recorded as “much bluer shade of red than in Example 3” and the “wavelength” value is listed as “around 580 nm”. In addition, the “color of separated aqueous layer” value (two milligrams per liter of gasoline, 5% caustic soda solution) is “violet-red”.

Source of the values: US6482651B1, “Aromatic esters for marking or tagging petroleum products” (United Color Manufacturing, Inc., priority 1999, dated 2002).
